The values that follow come from publication PMC3032553, “Structural Basis for c-di-GMP-Mediated Inside-Out Signaling Controlling Periplasmic Proteolysis” (PLoS Biology, 2011).

These are yes or no findings as the source states them, for the method shown.

This assay addresses His6-tagged LapG (P. fluorescens). The assay is described as follows: pull-down; His6-LapG bound to NiNTA resin, untagged LapD output domain variants added, 1 h at 4°C; 25 mM Tris-HCl pH 8.4, 75 mM NaCl, 25 mM KCl, 40 mM imidazole; eluates on SDS-PAGE (Coomassie; SYPRO Ruby for quantification); both purified.

B1: LapD^output W125E (domain or fragment, UniProt Q3KK31 22-151)
chain: SFMVSLESSRTQYVNQLRSHAQDAATALALSLTPNIDDPAMVELLVSSIFDSGYYSSIRVVDLKTDQTIVERNGIPAVTNVPDWFVKLIGLEPAGGDALVSRGEEQAARVEVVSHPMFALAKLWQSALGS
For the molecule B1, the binding result is “no binding”.
